Measured values: patent US6380198B1 (Laboratoire Medidom S.A., priority 1997, dated 2002)

By UniProt entry, the sequences of proteins in these tests, tags left out. Residues count along the entry.
UniProt G1SD54, 1-223: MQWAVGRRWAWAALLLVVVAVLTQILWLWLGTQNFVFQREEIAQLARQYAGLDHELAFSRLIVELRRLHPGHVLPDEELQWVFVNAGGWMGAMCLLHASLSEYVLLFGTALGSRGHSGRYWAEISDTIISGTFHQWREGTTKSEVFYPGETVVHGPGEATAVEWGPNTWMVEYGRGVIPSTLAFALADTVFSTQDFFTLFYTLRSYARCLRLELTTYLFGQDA

Biological target: T1, σ-1 receptors (Oryctolagus cuniculus, UniProt G1SD54)
T1 construct: cell membranes obtained from the irido-ciliary body complex; from tissue; host or cells: rabbit irido-ciliary body, P2 membrane fraction
Assay: Inhibition of 3H(+)-N-allyl-nor-methazocine binding to irido-ciliary body membranes
Design: species or system rabbit (New Zealand albino)
Details: rabbit irido-ciliary body P2 membranes, 300 μg protein, 37° C., 150 minutes, duplicate
Procedure: The receptor binding technique was carried out on cell membranes obtained from the irido-ciliary body complex explanted, after sacrifice, from male albino rabbits of the New Zealand strain (Charles River Italiana, of Calco (CO)). The tissue was homogenised in buffer and the P2, fraction, rich in cell membrane proteins, was isolated. […] The La total protein concentration was determined with the Lowry method.
The non specific binding was evaluated in presence of haloperidol.
All tests were carried out in duplicate. The reaction was maintained at 37° C. for 150 minutes, followed by filtration on WhatmannGF/B filters. The radioactivity left on the filters was measured by liquid scintillation spectrometry.

`Fc1ccc(C(c2ccc(F)cc2)N2CCN(C/C=C/c3ccccc3)CC2)cc1` [flunarizine] gave an IC50 of 23.9 nM.
